Results are given in words; binding and its absence hold for the method and conditions named. For some assays here: Binding seen in cells or lysates may run through a third protein. Some binding calls cover weakened binding; strength is not graded here.
Tests used:
[1] = target: TEM8, endogenous in HepG2 hepatoma cells (human (endogenous in HepG2)) (UniProt Q9H6X2); test: co-IP; HepG2 cells treated with LMW-uPA (doses); lysates immunoprecipitated by TEM8 antibody, immunoblot with EGFR antibody
[2] = target: TEM8-Fc, a recombinant fusion protein comprising the extracellular domain of human TEM8 linked to the Fc portion of human IgG1 (human) (UniProt Q9H6X2); test: SPR; BIAcore 2000; TEM8-Fc amine-coupled on a CM5 chip (about 5,000 RU); analytes in PBS with or without 2 mM MnCl2, 30 ul/min; Herceptin surface as background control; both purified

The chains behind the UniProt entries cited, without tags or fusion partners. Where a name states a change or a piece, a line headed by the entry shows the natural chain unless it says otherwise. Residues count along the entry.
UniProt Q9H6X2: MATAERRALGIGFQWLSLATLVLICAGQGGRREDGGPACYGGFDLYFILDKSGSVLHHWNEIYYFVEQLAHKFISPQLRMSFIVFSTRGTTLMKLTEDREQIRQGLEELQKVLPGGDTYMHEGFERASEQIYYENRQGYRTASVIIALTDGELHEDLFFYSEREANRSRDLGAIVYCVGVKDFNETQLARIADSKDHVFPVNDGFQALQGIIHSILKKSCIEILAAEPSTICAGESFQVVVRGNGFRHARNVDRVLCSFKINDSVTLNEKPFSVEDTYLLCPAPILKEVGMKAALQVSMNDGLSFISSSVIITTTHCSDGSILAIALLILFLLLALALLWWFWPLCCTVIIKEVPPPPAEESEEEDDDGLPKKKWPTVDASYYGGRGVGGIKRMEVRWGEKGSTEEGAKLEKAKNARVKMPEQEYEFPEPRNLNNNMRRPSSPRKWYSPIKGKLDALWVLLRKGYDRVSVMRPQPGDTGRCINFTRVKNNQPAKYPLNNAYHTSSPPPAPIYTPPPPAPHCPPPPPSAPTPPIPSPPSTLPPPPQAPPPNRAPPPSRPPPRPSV
TEM8, endogenous in HepG2 hepatoma cells (human (endogenous in HepG2)): residues 33-564 of Q9H6X2
UniProt P02769, residues 25-607: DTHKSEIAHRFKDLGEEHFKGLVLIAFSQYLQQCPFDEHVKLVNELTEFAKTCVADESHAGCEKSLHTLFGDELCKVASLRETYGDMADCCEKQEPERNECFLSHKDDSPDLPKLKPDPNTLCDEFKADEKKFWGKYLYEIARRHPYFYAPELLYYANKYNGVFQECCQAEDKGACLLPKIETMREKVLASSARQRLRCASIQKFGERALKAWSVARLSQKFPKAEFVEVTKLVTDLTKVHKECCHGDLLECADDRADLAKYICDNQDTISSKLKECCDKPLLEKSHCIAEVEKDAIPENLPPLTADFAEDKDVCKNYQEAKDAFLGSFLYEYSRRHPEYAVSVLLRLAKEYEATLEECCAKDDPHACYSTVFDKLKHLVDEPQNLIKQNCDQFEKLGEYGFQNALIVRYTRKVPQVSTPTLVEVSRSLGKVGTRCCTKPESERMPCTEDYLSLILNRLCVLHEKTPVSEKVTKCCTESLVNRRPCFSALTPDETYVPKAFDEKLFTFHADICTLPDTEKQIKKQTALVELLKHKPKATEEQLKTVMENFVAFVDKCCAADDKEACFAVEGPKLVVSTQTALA

binding [1]	Substance	binding [2]
binds	EGFR, endogenous in HepG2 cells (from UniProt P00533 25-1210) (receptor)	–
–	BSA (from UniProt P02769 25-607)	no binding

Source: PMC6151050
